{
  "source": "paper PMC5996148",
  "experiment_in_all_cases": "protein microarray (ProtoArray v5.0), streptavidin-Alexa Fluor 647",
  "details_in_all_cases": "3'-biotin; 20 mM Tris (pH 7.5), 5 mM MgCl2, 100 mM KCl, 0.1% Tween-20, A/T-rich and random oligonucleotide blockers; temperature not stated; high values mean tight binding",
  "key": {"[1]": {"test_system": "IFNW1 (human)"}, "[2]": {"test_system": "IFT81 (human)"}, "[3]": {"test_system": "IGF2 (human)"}, "[4]": {"test_system": "IGHA1 (human)"}, "[5]": {"test_system": "IGHG1 (human)"}, "[6]": {"test_system": "IGHM (human)"}, "[7]": {"test_system": "IGJ (human)"}, "[8]": {"test_system": "IGKV1-5 (human)"}, "[9]": {"test_system": "IGL@ (human)"}, "[10]": {"test_system": "IGLC1 (human)"}, "[11]": {"test_system": "IGLV2-14 (human)"}, "[12]": {"test_system": "IGSF1 (human)"}, "[13]": {"test_system": "IHPK2 (human)"}, "[14]": {"test_system": "IKIP (human)"}, "[15]": {"test_system": "IL11RA (human)"}, "[16]": {"test_system": "IL12A (human)"}, "[17]": {"test_system": "IL17A (human)"}, "[18]": {"test_system": "IL18BP (human)"}, "[19]": {"test_system": "IL1B (human)"}, "[20]": {"test_system": "IL1F7 (human)"}},
  "note": "Where “and” joins values, the source holds several entries; their conditions need not be identical. Equal entries are not always repeated. Some of the results follow.",
  "data": [
    {"sequence": "GGGAGGCTGAGGCAGG [G4-1 biotinylated (PQS2)]", "values": [
      {"measurement": "binding signal", "setting": "[1]", "result": -0.331, "unit": "z-score"},
      {"measurement": "binding signal", "setting": "[2]", "result": -0.292, "unit": "z-score"},
      {"measurement": "binding signal", "setting": "[3]", "result": -0.251, "unit": "z-score"},
      {"measurement": "binding signal", "setting": "[4]", "result": -0.341, "unit": "z-score"},
      {"measurement": "binding signal", "setting": "[5]", "result": -0.278, "unit": "z-score"},
      {"measurement": "binding signal", "setting": "[6]", "result": -0.33, "unit": "z-score"},
      {"measurement": "binding signal", "setting": "[7]", "result": -0.326, "unit": "z-score"},
      {"measurement": "binding signal", "setting": "[8]", "result": "-0.316 z-score and -0.288 z-score"},
      {"measurement": "binding signal", "setting": "[9]", "result": -0.355, "unit": "z-score"},
      {"measurement": "binding signal", "setting": "[10]", "result": -0.308, "unit": "z-score"},
      {"measurement": "binding signal", "setting": "[11]", "result": -0.333, "unit": "z-score"},
      {"measurement": "binding signal", "setting": "[12]", "result": -0.315, "unit": "z-score"},
      {"measurement": "binding signal", "setting": "[13]", "result": -0.317, "unit": "z-score"},
      {"measurement": "binding signal", "setting": "[14]", "result": -0.279, "unit": "z-score"},
      {"measurement": "binding signal", "setting": "[15]", "result": -0.268, "unit": "z-score"},
      {"measurement": "binding signal", "setting": "[16]", "result": -0.341, "unit": "z-score"},
      {"measurement": "binding signal", "setting": "[17]", "result": -0.328, "unit": "z-score"},
      {"measurement": "binding signal", "setting": "[18]", "result": -0.312, "unit": "z-score"},
      {"measurement": "binding signal", "setting": "[19]", "result": -0.372, "unit": "z-score"},
      {"measurement": "binding signal", "setting": "[20]", "result": -0.317, "unit": "z-score"}
    ]}
  ]
}
